# Results published in publication PMC12890720.
# Results are given in words; binding and its absence hold for the method and conditions named. Binding seen in cells or lysates may run through a third protein. Some binding calls cover weakened binding; strength is not graded here.
# T1: DNAJB12 (human (endogenous in HepG2.2.15 and HepG2)) (UniProt Q9NXW2)
# T1 sequence: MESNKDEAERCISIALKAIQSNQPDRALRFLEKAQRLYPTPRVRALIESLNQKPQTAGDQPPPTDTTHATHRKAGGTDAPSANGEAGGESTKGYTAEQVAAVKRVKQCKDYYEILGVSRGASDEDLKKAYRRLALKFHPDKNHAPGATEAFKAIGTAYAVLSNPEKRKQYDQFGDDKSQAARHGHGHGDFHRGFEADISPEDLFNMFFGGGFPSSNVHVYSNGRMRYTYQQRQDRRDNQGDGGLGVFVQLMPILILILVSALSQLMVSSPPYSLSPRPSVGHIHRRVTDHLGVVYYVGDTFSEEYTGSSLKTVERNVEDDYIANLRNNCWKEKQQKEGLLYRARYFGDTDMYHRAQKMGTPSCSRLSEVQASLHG
# Molecular target: T1, DNAJB12 (human (endogenous in HepG2.2.15 and HepG2))
# Assay: pull-down; HepG2.2.15 lysates (shCtrl or shDNAJB12; parental or expressing DNAJB12-ΔDUF) incubated with 50 nM biotinylated REP 2139 (ligand of DNAJB12) and streptavidin beads or protein G beads with anti-biotin antibody, overnight at 4°C; non-biotinylated REP 2139 as negative control; western blot
binder,measurement,value
"DNAJB12-ΔDUF (domain or fragment, UniProt Q9NXW2 1-269) MESNKDEAERCISIALKAIQSNQPDRALRFLEKAQRLYPTPRVRALIESLNQKPQTAGDQPPPTDTTHATHRKAGGTDAPSANGEAGGESTKGYTAEQVAAVKRVKQCKDYYEILGVSRGASDEDLKKAYRRLALKFHPDKNHAPGATEAFKAIGTAYAVLSNPEKRKQYDQFGDDKSQAARHGHGHGDFHRGFEADISPEDLFNMFFGGGFPSSNVHVYSNGRMRYTYQQRQDRRDNQGDGGLGVFVQLMPILILILVSALSQLMVSS",binding,binds
